# For some of these results: Results from cells or extracts need not show a direct contact. For some of these results: Protein sequences can lack the tags named with them. For some of these results: Construct, isoform or probe ends are uncertain for at least one entry.
# Amino acid sequences for entries named in this document (tags omitted). Residues count along the entry.
# UniProt P13393, 2-240: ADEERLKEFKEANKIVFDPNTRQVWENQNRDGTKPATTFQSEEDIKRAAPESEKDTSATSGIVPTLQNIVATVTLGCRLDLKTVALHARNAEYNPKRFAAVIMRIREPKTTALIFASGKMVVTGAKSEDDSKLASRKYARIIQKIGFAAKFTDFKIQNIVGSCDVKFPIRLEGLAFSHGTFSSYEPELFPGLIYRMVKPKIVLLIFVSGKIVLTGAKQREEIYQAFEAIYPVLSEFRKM
# Tests used:
# TFIIB = molecular target: T1, TFIIB (UniProt P29055); test: binding assay; settings: method not stated; does not interfere with TFIIB-TBP interaction; purified recombinant protein
# T1 sequence (looked up, limits assumed): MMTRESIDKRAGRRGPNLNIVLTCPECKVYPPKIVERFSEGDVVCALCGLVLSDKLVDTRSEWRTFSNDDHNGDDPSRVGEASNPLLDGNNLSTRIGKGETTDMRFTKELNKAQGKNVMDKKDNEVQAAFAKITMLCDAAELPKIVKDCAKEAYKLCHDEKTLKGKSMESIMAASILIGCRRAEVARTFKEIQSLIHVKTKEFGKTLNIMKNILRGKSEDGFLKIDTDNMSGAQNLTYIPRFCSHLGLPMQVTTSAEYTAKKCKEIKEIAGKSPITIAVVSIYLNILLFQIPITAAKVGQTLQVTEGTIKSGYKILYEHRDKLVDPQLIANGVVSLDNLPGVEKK
# [1] = molecular target: TBP (in yeast whole cell extract) (UniProt P13393); test: inhibition of the protein; settings: TBP around 20 nM in extract, protein in an extract
# [2] = molecular target: T2, B52 on polytene chromosomes (UniProt P26686); test: binding assay; settings: fluorescence with Texas Red streptavidin; B52-like pattern, heat shock loci labeled; protein in cells; protein details: fixed salivary gland squashes
# T2 sequence (looked up, limits assumed): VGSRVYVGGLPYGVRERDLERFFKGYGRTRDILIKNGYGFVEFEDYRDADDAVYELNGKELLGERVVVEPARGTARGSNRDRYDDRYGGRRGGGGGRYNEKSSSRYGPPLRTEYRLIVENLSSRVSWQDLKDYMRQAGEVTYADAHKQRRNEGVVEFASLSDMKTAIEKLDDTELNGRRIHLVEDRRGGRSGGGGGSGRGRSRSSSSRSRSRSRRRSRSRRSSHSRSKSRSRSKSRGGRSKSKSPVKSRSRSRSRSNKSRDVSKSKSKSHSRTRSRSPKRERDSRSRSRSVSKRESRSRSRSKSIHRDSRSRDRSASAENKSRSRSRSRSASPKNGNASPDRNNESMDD
sequence,measurement,setting,value
GGGAGAAUUCAACUGCCAUCUAGGCAAAGAGCUAAUGUAGGAUGCUGGGGUAGUCCAGCCCUAGAAUAAGCGCUAGUACUACAAGCUUCUGGAGCUCGGU [AptB4],Kd,TFIIB,7 nM
GGGAGAAUUCAACUGCCAUCUAGGCAGCCAAGGUAAACAAUUCAGUUAGUGGAAUGAAACUGCCCAACACCAGAAGUACUACAAGCUUCUGGACUCGGU [AptTBP-101],functional effect of the aptamer,[1]; inhibits Pol II dependent transcription from AdML promoter as potently as AptTBP-12,active
GGGAUCGCCGCGGCUGGUCAACCAGGCGACCGCCGCGGCCACAGCGGUGGGCUGGUCAACCAGGCGACCGCCCACCAGCGUUCCCGGAUCCGUGACCGACCAGAAUCAUGCAAGUGCGUAAGAUAGUCGCGGGUCGGGUCAUACUCCCGGCCAGAAUCAUGCAAGUGCGUAAGAUAGUCGCGGGCCGGGAGGCGGAUUC [aptabody B-S],binding result,[2],binds
GGGAGAAUUCAACUGCCAUCUAGGCGCCGUGCCCGGUUUGGAUAGGCACAUAAGACGCCGACAAAGAAACCAACCAGUACUACAAGCUUCUGGACUCGGU [AptTBP-12],functional effect of the aptamer,[1]; inhibits Pol II dependent transcription from AdML promoter,active
